For one substance, binding results are on record in publication PMC3814295.

Chains of the proteins cited; added tags and fusions are not shown.
UniProt Q06609: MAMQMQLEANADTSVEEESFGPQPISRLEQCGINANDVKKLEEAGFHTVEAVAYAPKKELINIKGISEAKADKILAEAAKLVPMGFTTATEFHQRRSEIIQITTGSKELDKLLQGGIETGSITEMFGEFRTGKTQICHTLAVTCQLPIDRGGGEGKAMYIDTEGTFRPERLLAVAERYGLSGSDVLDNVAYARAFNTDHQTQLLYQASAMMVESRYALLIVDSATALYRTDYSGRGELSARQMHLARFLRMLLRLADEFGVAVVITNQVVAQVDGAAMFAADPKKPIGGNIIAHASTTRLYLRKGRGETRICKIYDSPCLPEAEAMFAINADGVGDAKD

In the assay the target is T1, purified 6xHis-tagged RAD52 (human) (UniProt P43351).
T1 sequence: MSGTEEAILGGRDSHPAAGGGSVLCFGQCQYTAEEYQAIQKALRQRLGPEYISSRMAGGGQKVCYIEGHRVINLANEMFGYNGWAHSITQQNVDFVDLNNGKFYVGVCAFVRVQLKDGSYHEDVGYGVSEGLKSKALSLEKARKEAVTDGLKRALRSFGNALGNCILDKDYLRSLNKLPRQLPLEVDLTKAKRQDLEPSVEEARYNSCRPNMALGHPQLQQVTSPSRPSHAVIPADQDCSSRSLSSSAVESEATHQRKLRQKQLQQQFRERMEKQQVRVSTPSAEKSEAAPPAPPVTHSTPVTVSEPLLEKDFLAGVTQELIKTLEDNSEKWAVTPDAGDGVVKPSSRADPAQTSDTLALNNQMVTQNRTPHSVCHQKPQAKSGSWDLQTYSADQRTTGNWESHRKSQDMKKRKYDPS
Kind of assay: pull-down; 5 ug purified His-tagged RAD52 as bait incubated overnight with 1 mg benzonase-treated HeLa nuclear extract in Tris/Cl pH 7.6, 150 mM NaCl, 0.5% Triton X-100; captured with anti-His antibody-coupled Protein G (magnetic beads) 1 h at RT; Western blotting; only the target purified.

No constants are given. Whether binding was seen depends on the method and setting. In cells and extracts the contact can be indirect. Some results given as binding are weak or reduced against the parent protein; the word gives no strength. Tags and fused reporters may be left off the sequences shown.

Consider “RAD51 (HeLa nuclear extract) (from UniProt Q06609 1-339)”, for which the binding result is recorded as “binds”.
